This note sets out measurements from PMC10761119, “Phosphorylation-state dependent intraneuronal sorting of Aβ differentially impairs autophagy and the endo-lysosomal system” (Autophagy, 2023).

For the data set, the system named is mouse brain fractions (WTxTHY1-YFP and APP-PSEN1dE9×THY1-YFP). Kind of data set: ELISA of Aβ species in sucrose, SDS and formic acid soluble mouse brain fractions. The class given is in vivo. The settings on record: mean ± S.D., n = 4 mice, N = 2. (An ELISA detects its analyte on a solid surface through an enzyme-linked reagent.)

With non-modified amyloid-β [nmAβ], where the note is “SDS soluble brain fraction, APP-PSEN1dE9×THY1-YFP mice”, the “Aβ concentration, SDS, APP-PSEN1dE9” value is 71.4 ± 4.5 pg/µg. Besides, the “Aβ concentration, SDS, WT” value (SDS soluble brain fraction, WTxTHY1-YFP mice) is recorded as 0 ± 1.6 pg/µg. Also, the “Aβ concentration, FA, APP-PSEN1dE9” value (formic acid soluble brain fraction, APP-PSEN1dE9×THY1-YFP mice) stood at 124.1 ± 18.2 pg/µg. The “Aβ concentration, FA, WT” value (formic acid soluble brain fraction, WTxTHY1-YFP mice) is given as 0.3 ± 5.2 pg/µg. For the setting “sucrose soluble brain fraction, APP-PSEN1dE9×THY1-YFP mice, normalized to WT fractions”, the “Aβ concentration, Sucrose, APP-PSEN1dE9” value came out at 28 ± 4.8 pg/µg. Moreover, the “Aβ concentration, Sucrose, WT” value (sucrose soluble brain fraction, WTxTHY1-YFP mice, normalized to WT fractions) amounted to 0 ± 2.3 pg/µg.
